# Measurements published in publication PMC7356634.
# No constants are given. Whether binding was seen depends on the method and setting. Binding seen in cells or lysates may run through a third protein. Tags and fused reporters may be left off the sequences shown.
# B1: O-linked N-acetylglucosamine (GlcNAc) transferase (OGT), endogenous (enzyme, UniProt O15294 1-1046)
# chain: MASSVGNVADSTEPTKRMLSFQGLAELAHREYQAGDFEAAERHCMQLWRQEPDNTGVLLLLSSIHFQCRRLDRSAHFSTLAIKQNPLLAEAYSNLGNVYKERGQLQEAIEHYRHALRLKPDFIDGYINLAAALVAAGDMEGAVQAYVSALQYNPDLYCVRSDLGNLLKALGRLEEAKACYLKAIETQPNFAVAWSNLGCVFNAQGEIWLAIHHFEKAVTLDPNFLDAYINLGNVLKEARIFDRAVAAYLRALSLSPNHAVVHGNLACVYYEQGLIDLAIDTYRRAIELQPHFPDAYCNLANALKEKGSVAEAEDCYNTALRLCPTHADSLNNLANIKREQGNIEEAVRLYRKALEVFPEFAAAHSNLASVLQQQGKLQEALMHYKEAIRISPTFADAYSNMGNTLKEMQDVQGALQCYTRAIQINPAFADAHSNLASIHKDSGNIPEAIASYRTALKLKPDFPDAYCNLAHCLQIVCDWTDYDERMKKLVSIVADQLEKNRLPSVHPHHSMLYPLSHGFRKAIAERHGNLCLDKINVLHKPPYEHPKDLKLSDGRLRVGYVSSDFGNHPTSHLMQSIPGMHNPDKFEVFCYALSPDDGTNFRVKVMAEANHFIDLSQIPCNGKAADRIHQDGIHILVNMNGYTKGARNELFALRPAPIQAMWLGYPGTSGALFMDYIITDQETSPAEVAEQYSEKLAYMPHTFFIGDHANMFPHLKKKAVIDFKSNGHIYDNRIVLNGIDLKAFLDSLPDVKIVKMKCPDGGDNADSSNTALNMPVIPMNTIAEAVIEMINRGQIQITINGFSISNGLATTQINNKAATGEEVPRTIIVTTRSQYGLPEDAIVYCNFNQLYKIDPSTLQMWANILKRVPNSVLWLLRFPAVGEPNIQQYAQNMGLPQNRIIFSPVAPKEEHVRRGQLADVCLDTPLCNGHTTGMDVLWAGTPMVTMPGETLASRVAASQLTCLGCLELIAKNRQEYEDIAVKLGTDLEYLKKVRGKVWKQRISSPLFNTKQYTMELERLYLQMWEHYAAGNKPDHMIKPVEVTESA
# How the values were obtained:
# [1] = molecular target: C-terminally myc/His tagged M76 (MCMV, Smith strain); test: co-IP; HEK293T transfected with one myc-tagged protein; IP with anti-myc antibody and protein A agarose in IP lysis buffer (20 mM Tris-HCl pH 7.5, 150 mM NaCl, 1% IGEPAL CA-630, 0.25% sodium deoxycholate, 0.1% SDS), 7 washes; blot for endogenous OGT
# [2] = molecular target: myc-tagged M35 (pcDNA4-M35-myc/His) (murine CMV (MCMV)); test: as above
binder,measurement,setting,value
B1,binding,[1],no binding
same,binding,[2],no binding
